These are yes or no findings as the source states them, for the method shown.
Key:
[1] = target: isolated J-domain of DnaJB8, JD_(1–82) (human) (UniProt Q8NHS0); assay: cross-linking; single recombinant proteins (100 μM) in 1× PBS, 37 °C, 30 min, ADH/DMTMM or DSS; SDS-PAGE and XL–MS; both purified
[2] = target: isolated J-domain of DnaJB8, JD_(1–82) (human) (UniProt Q8NHS0); assay: SEC-MALS; Superdex 200 Increase 10/300 in 1× PBS with 1 mM TCEP, 0.5 mL/min; 5.1, 5.0 and 6.6 mg/mL loaded for DnaJB8F→S, JD and CTD; both purified

Amino acid sequences for entries named in this document (tags omitted). Residues count along the entry.
UniProt Q8NHS0, residues 1-82: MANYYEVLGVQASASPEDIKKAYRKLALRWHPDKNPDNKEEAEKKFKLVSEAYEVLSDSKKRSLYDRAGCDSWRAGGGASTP

isolated J-domain of DnaJB8, JD_(1–82) (from UniProt Q8NHS0 1-82) (domain or fragment)
binding [1]: no binding (tested: 100 μM) | binding [2]: no binding (tested: 5.0 mg/mL)

Reference: PMC7878476
